No constants are given. Whether binding was seen depends on the method and setting. A result given as binding can be weak or reduced; the word gives no strength.
Experiments:
[1] = biological target: GSDMB (residues 1-411) (human) (UniProt Q8TAX9); assay: ITC; MicroCal PEAQ-ITC, 25 °C; IpaH7.8 proteins injected into the cell containing GSDMB or GSDMD proteins; 25 mM Tris-HCl pH 8.0, 150 mM NaCl unless otherwise stated (one titration of IpaH7.8 into GSDMB in a high salt buffer); both purified
[2] = biological target: MBP-GSDMB fusion protein (human) (UniProt Q8TAX9); assay: pull-down; MBP-tagged GSDMB proteins (~100 µg) on amylose resin, tag-free IpaH7.8 (~400 µg) added; 25 mM Tris-HCl pH 8.0, 200 mM NaCl, 3 mM β-mercaptoethanol, 4 °C; eluted with maltose, SDS-PAGE; both purified
[3] = biological target: GSDMB (residues 1-411) (human) (UniProt Q8TAX9); assay: AUC; sedimentation velocity; ~1 mg/ml in 25 mM Tris-HCl pH 8.0, 150 mM NaCl; both purified
[4] = biological target: GSDMB (residues 1-411) (human) (UniProt Q8TAX9); assay: SEC; Superdex 200 Increase 10/300 GL; purified proteins mixed at a 3:1 molar ratio on ice for 1 h; 25 mM Tris-HCl pH 8.0, 150 mM NaCl, 2 mM DTT; fractions on SDS-PAGE; both purified
[5] = biological target: GSDMB (residues 1-411) (human) (UniProt Q8TAX9); assay: crystal structure; GSDMB (1-411) with IpaH7.8 (23-264), co-expressed complex; sitting drop, 18 °C; 2.7 Å; both purified
[6] = biological target: GSDMB (residues 1-411) (human) (UniProt Q8TAX9); assay: SAXS; 25 mM Tris-HCl pH 8.0, 150 mM NaCl; 23 °C; ab initio model compared with the crystal structure; both purified

By UniProt entry, the sequences of proteins in these tests, tags left out. Where a name states a change or a piece, a line headed by the entry shows the natural chain unless it says otherwise.
UniProt Q8TAX9: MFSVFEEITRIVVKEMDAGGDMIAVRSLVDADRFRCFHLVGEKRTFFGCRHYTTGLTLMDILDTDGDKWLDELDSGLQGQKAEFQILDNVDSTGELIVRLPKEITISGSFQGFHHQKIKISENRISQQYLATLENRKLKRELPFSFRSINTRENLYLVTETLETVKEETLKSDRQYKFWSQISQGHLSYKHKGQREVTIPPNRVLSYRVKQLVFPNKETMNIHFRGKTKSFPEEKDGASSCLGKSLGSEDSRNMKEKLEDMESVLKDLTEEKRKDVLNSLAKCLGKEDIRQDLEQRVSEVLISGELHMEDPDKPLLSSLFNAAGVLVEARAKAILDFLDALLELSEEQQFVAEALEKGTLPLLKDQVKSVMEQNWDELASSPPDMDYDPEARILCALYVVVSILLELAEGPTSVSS

| Substance | binding [1] | binding [2] | binding [3] | binding [4] | binding [5] | binding [6] |
| --- | --- | --- | --- | --- | --- | --- |
| IpaH7.8 with the mutations in LRR5 (from UniProt P18014) (enzyme) | binds | – | – | – | – | – |
| IpaH7.8 protein (residues 23–565) (from UniProt P18014 23-565) (enzyme) | binds | binds | binds | binds | – | – |
| N-terminal LRR domain (residues 23–264) of IpaH7.8 (from UniProt P18014 23-264) (domain or fragment) | binds | – | – | binds | binds | binds |
| C-terminal NEL domain (residues 265–565) of IpaH7.8 (from UniProt P18014 265-565) (domain or fragment) | no binding | – | – | no binding | – | – |

Reference: article PMC9813358, “Insights into the GSDMB-mediated cellular lysis and its targeting by IpaH7.8” (Nature Communications, 2023)
